From patent publication US20170334988A1 (WALTER AND ELIZA HALL INSTITUTE OF MEDICAL RESEARCH, published 2017)
Results are given in words; binding and its absence hold for the method and conditions named. Some results given as binding are weak or reduced against the parent protein; the word gives no strength. Ends that are not written are not given here. * marks the point of attachment. Biotin = O=C1N[C@H]2[C@H](CS[C@H]2CCCCC(=O)*)N1

Columns and labels:
Experiment in all cases: immunoprecipitation from membranes incubated with or without tBid, western blot
A54C (human) = biological target: T1, A54C (human) (UniProt Q16611)
T1 sequence (looked up): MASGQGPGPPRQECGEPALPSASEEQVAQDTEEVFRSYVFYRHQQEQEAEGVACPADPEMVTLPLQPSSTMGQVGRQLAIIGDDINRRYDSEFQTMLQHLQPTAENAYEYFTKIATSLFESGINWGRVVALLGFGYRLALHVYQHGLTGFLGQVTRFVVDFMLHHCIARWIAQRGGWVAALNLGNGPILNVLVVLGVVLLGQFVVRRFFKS

V52C (human) = biological target: T2, V52C (human) (UniProt Q16611)
T2 sequence (looked up): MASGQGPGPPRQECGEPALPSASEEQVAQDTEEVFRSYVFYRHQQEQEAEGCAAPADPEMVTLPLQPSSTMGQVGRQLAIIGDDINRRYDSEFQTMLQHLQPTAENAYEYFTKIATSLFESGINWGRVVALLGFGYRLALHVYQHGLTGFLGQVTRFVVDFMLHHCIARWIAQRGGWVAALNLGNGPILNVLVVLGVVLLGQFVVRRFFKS

A53C (human) = biological target: T3, A53C (human) (UniProt Q16611)
T3 sequence (looked up): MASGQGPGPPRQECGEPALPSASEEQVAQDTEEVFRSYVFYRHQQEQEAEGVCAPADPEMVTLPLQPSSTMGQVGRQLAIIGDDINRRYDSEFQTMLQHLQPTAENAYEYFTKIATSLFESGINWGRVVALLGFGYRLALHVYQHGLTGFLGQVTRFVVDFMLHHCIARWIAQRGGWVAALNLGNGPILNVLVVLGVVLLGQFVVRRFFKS

A56C (human) = biological target: T4, A56C (human) (UniProt Q16611)
T4 sequence (looked up): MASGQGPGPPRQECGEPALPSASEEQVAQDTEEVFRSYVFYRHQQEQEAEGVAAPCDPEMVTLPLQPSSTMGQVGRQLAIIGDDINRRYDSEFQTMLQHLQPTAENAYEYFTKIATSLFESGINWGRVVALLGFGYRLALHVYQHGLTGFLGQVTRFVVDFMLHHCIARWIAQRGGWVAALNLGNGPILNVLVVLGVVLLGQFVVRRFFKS

Measured: binding

B1: 26/05-7D10-17-13 antibody (antibody, V domains shown)
VH: EVELVESGGDLVQPGRSLKLSCAASGFTFSNLAMAWVRQTPTKGLEWVASISPAGITTYYRDSVKGRFTISRDNARNTQYLQMDSLRSEDTATYYCARHTGKSSFFDYWGQGVMVTVSS
VL: DVQMTQSPSYLAASPGESVSISCKATENINTYLAWYQAKPGKTTKLLLYSGSTLQSGTPSRFSGSGSGTDFTLTISSLEPEDFAVYYCQQHNEYPLTFGSGTKLEIK
notes: Rat IgG monoclonal antibody from hybridoma SW1 (ECACC 15041601), WEHI monoclonal antibody facility; also called 26/05-7D10-17-13 MAb; 26/05-7D 10-17-13 anti-Bak antibody
binds: A54C (human) | V52C (human) | A53C (human) | A56C (human)
